Where a name gives a salt, the structure may show the parent alone. Some of the results follow. Many values rest on one well or one pass, so single values are uncertain.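 The strains were three CDC resistance-bank clinical C. auris isolates from clades III, IV and I, cultured in RPMI-1640 at 35°C. Growth was background-corrected OD600 versus vehicle-only wells on the same plate. A hit needed >50% inhibition in two or more strains plus a plate-corrected B-score exceeding 0.1.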
Key:
Assay in all cases: growth relative to vehicle control (OD600 ratio) (fraction); higher = less inhibition
Conditions in all cases: 24 h
C. auris AR-384 = system: C. auris AR-384
C. auris AR-386 = system: C. auris AR-386
C. auris AR-387 = system: C. auris AR-387

SMILES	growth (C. auris AR-384; 1 µM)	growth (C. auris AR-384; 10 µM)	growth (C. auris AR-386; 1 µM)	growth (C. auris AR-386; 10 µM)	growth (C. auris AR-387; 1 µM)	growth (C. auris AR-387; 10 µM)
Cc1cn(-c2cc(NC(=O)c3ccc(C)c(Nc4nccc(-c5cccnc5)n4)c3)cc(C(F)(F)F)c2)cn1 [Nilotinib (AMN-107)]	0.79	0.63	0.71	1.05	0.83	0.89
O=C(Cn1ccnc1[N+](=O)[O-])NCc1ccccc1 [Benznidazole]	0.87	0.97	0.81	1.1	0.94	1.07
COc1ccc(CNc2nc(N3CCC[C@H]3CO)ncc2C(=O)NCc2ncccn2)cc1Cl [Avanafil]	0.97	0.77	0.8	0.51	0.82	1.12
COc1cc(C(=O)O)ccc1NC(=O)[C@@H]1N[C@@H](CC(C)(C)C)[C@](C#N)(c2ccc(Cl)cc2F)[C@H]1c1cccc(Cl)c1F [Idasanutlin (RG-7388)]	0.98	0.38	0.62	0.41	0.63	0.49
CN(C)CCCN1c2ccccc2CCc2ccccc21 [Imipramine HCl]	0.85	0.73	0.93	0.79	0.76	0.75
CCOC(CN1CCN(CC(C)C(=O)c2ccccc2)CC1)c1ccccc1 (centres undefined) [Eprazinone 2HCl]	0.79	1.16	0.91	1.3	0.91	1.06
CN(C)CCOC(=O)COc1ccc(Cl)cc1 [Meclofenoxate (Centrophenoxine) HCl]	0.79	0.73	0.62	0.59	0.79	0.86
CCCCCCNC(=O)n1cc(F)c(=O)[nH]c1=O [Carmofur]	0.9	1.45	1.31	0.93	1.1	1.05
O=C(O)c1cccc(-c2noc(-c3ccccc3F)n2)c1 [Ataluren (PTC124)]	1.26	1.54	1.44	1.41	1.24	1.22
CCN(CC)CCOC(=O)c1ccc(N)cc1 [Procaine HCl]	0.96	0.86	0.74	1	1.15	0.74
NCCCC[C@H](N[C@@H](CCc1ccccc1)C(=O)O)C(=O)N1CCC[C@H]1C(=O)O [Lisinopril]	0.69	0.51	0.88	0.8	0.66	0.61
CCC(C)(C)c1ccc(CC(C)CN2C[C@@H](C)O[C@@H](C)C2)cc1 (some centres undefined) [Amorolfine HCl]	0.7	0.81	0.77	0.39	0.59	0.36
CC(=O)O[C@]1(C(C)=O)CC[C@H]2[C@@H]3C=C(Cl)C4=CC(=O)[C@@H]5C[C@@H]5[C@]4(C)[C@H]3CC[C@@]21C [Cyproterone Acetate]	1.04	0.91	0.87	0.95	0.81	0.8
CC[N+](CC)(CC)CCOc1cccc(OCC[N+](CC)(CC)CC)c1OCC[N+](CC)(CC)CC [Gallamine Triethiodide]	1.06	0.96	0.82	1.14	1.12	0.91
CCCNS(=O)(=O)Nc1ncnc(OCCOc2ncc(Br)cn2)c1-c1ccc(Br)cc1 [Macitentan]	0.87	0.7	0.83	0.83	0.73	0.67
CC(C)OC(=O)C(C(=O)OC(C)C)=C1SC=CS1 [Malotilate]	1.02	0.85	1.12	1.33	1.17	1.07
CC(C)(Oc1ccc(C2CC2(Cl)Cl)cc1)C(=O)O (centres undefined) [Ciprofibrate]	0.78	0.86	1.16	1.18	1.1	1.02
O=C(O)/C=C/c1ccc(Cn2ccnc2)cc1 [Ozagrel HCl]	1.26	1.44	1.09	1.37	1.22	1.08
CC(C)(C)NCC(O)c1cc(O)cc(O)c1 (centres undefined) [Terbutaline Sulfate]	0.66	0.93	0.84	1.31	0.98	0.91
CC(C)OC(=O)C(C)(C)Oc1ccc(C(=O)c2ccc(Cl)cc2)cc1 [Fenofibrate]	1.04	1.11	0.62	1.06	0.71	0.74
CNC1CCCN(c2c(F)cc3c(=O)c(C(=O)O)cn(C4CC4)c3c2OC)C1 (centres undefined) [Balofloxacin]	0.96	0.88	0.9	0.8	1.02	0.84
CC(/C=C1\SC(=S)N(CC(=O)O)C1=O)=C\c1ccccc1 [Epalrestat]	1.03	0.84	1.33	1.11	1.06	1.11

By substructure, those above with a tert-butyl group (2)
SMILES	growth (C. auris AR-384; 1 µM)	growth (C. auris AR-384; 10 µM)	growth (C. auris AR-386; 1 µM)	growth (C. auris AR-386; 10 µM)	growth (C. auris AR-387; 1 µM)	growth (C. auris AR-387; 10 µM)
COc1cc(C(=O)O)ccc1NC(=O)[C@@H]1N[C@@H](CC(C)(C)C)[C@](C#N)(c2ccc(Cl)cc2F)[C@H]1c1cccc(Cl)c1F [Idasanutlin (RG-7388)]	0.98	0.38	0.62	0.41	0.63	0.49
CC(C)(C)NCC(O)c1cc(O)cc(O)c1 (centres undefined) [Terbutaline Sulfate]	0.66	0.93	0.84	1.31	0.98	0.91

(more compounds)

SMILES	growth (C. auris AR-384; 1 µM)	growth (C. auris AR-384; 10 µM)	growth (C. auris AR-386; 1 µM)	growth (C. auris AR-386; 10 µM)	growth (C. auris AR-387; 1 µM)	growth (C. auris AR-387; 10 µM)
CC[C@H](C)C(=O)O[C@H]1C[C@@H](C)C=C2C=C[C@H](C)[C@H](CC[C@@H]3C[C@@H](O)CC(=O)O3)[C@H]21 [Lovastatin]	1.14	1.41	1.27	1.19	1.4	1.51
CSCCNc1nc(SCCC(F)(F)F)nc2c1ncn2[C@@H]1O[C@H](COP(=O)(O)OP(=O)(O)C(Cl)(Cl)P(=O)(O)O)[C@@H](O)[C@H]1O [Cangrelor Tetrasodium]	0.64	0.67	0.82	0.91	0.7	0.72
CCC[C@@H]1C[C@@H](C(=O)N[C@@H]([C@H]2O[C@H](SC)[C@H](O)[C@@H](O)[C@H]2O)[C@@H](C)O)N(C)C1 [Lincomycin HCl]	0.89	0.99	1.07	0.79	0.74	0.53
OC(CCN1CCCCC1)(c1ccccc1)C1CCCCC1 (centres undefined) [Trihexyphenidyl hydrochloride]	0.9	0.88	0.94	0.91	0.7	1.16
CCC[C@@H]1C[C@@H](C(=O)N[C@@H]([C@H]2O[C@H](SC)[C@H](O)[C@@H](O)[C@H]2O)[C@H](C)Cl)N(C)C1 [Clindamycin HCl]	1.02	1.11	1.17	1.48	1.22	1.49
Cn1c(=O)c2c(ncn2CC2OCCO2)n(C)c1=O [Doxofylline]	0.91	0.88	0.54	1.08	0.81	0.75
Cc1ncc([N+](=O)[O-])n1CCO [Metronidazole]	1.27	0.98	1	1.02	0.82	0.71
[O-][n+]1cccc(CO)c1 [Mepiroxol]	0.87	0.68	1.01	0.54	0.62	0.54
Cc1cc(-n2c(=O)[nH]c(=O)n(C)c2=O)ccc1Oc1ccc(SC(F)(F)F)cc1 [Toltrazuril]	0.89	0.86	0.6	0.64	0.76	0.76
CCN1CCC[C@H]1CNC(=O)c1cc(S(N)(=O)=O)ccc1OC [Levosulpiride]	0.71	0.73	0.75	0.89	0.83	0.79
O=C(OCC(O)CO)c1ccccc1Nc1ccnc2cc(Cl)ccc12 (centres undefined) [Glafenine HCl]	0.95	0.82	0.7	0.7	0.63	0.58
OCC(O)CN1CCN(c2ccccc2)CC1 (centres undefined) [Dropropizine]	0.92	0.94	0.85	1.02	0.73	0.71
CC(=O)OCC(=O)[C@@]1(O)CC[C@H]2[C@@H]3CCC4=CC(=O)C=C[C@]4(C)[C@H]3[C@@H](O)C[C@@]21C [Prednisolone Acetate]	0.88	1.11	0.85	1.24	0.78	0.86
CCCCc1oc2ccccc2c1C(=O)c1cc(I)c(OCCN(CC)CC)c(I)c1 [Amiodarone HCl]	0.78	0.95	0.63	0.86	0.67	0.82
O=C(O)C1=C(CSc2nnnn2CS(=O)(=O)O)CS[C@@H]2[C@H](NC(=O)[C@H](O)c3ccccc3)C(=O)N12 [Cefonicid sodium]	1.22	0.95	1.26	0.76	0.94	0.87
Nc1ccn([C@H]2CC[C@@H](CO)O2)c(=O)n1 [Zalcitabine]	0.9	1.36	1.45	1.08	1.24	1.1
COc1ccc(CN2CCN(C(c3ccc(F)cc3)c3ccc(F)cc3)CC2)c(OC)c1OC [Lomerizine 2HCl]	1	0.95	1.15	0.66	0.91	0.65
CCCNC(=O)NS(=O)(=O)c1ccc(Cl)cc1 [Chlorpropamide]	0.9	0.8	0.92	1.18	0.75	1.1
NC1=NCC2c3ccccc3Cc3ccccc3N12 (centres undefined) [Epinastine HCl]	0.81	0.8	0.63	0.75	0.62	0.65
NCc1ccc(S(N)(=O)=O)cc1 [Mafenide hydrochloride]	1.23	1.16	1.27	1.32	1.62	1.45
CC(=O)O[C@]1(C(C)=O)CC[C@H]2[C@@H]3C=C(C)C4=CC(=O)CC[C@]4(C)[C@H]3CC[C@@]21C [Megestrol Acetate]	0.95	0.76	0.76	1.04	0.72	0.88
C[C@@H]1[C@H](O)[C@@H](C)/C=C/C=C/C=C/C=C/C=C/C=C/C=C/[C@H](O[C@@H]2O[C@H](C)[C@@H](O)[C@H](N)[C@@H]2O)C[C@@H]2O[C@](O)(C[C@@H](O)C[C@@H](O)[C@H](O)CC[C@@H](O)C[C@@H](O)CC(=O)O[C@H]1C)C[C@H](O)[C@H]2C(=O)O [Amphotericin B]	1.25	0.11	0.53	0.63	0.83	0.06

Reference: the supplement of paper PMC10470496
